Results are given in words; binding and its absence hold for the method and conditions named. For part of these data: In cells and extracts the contact can be indirect. Some binding calls cover weakened binding; strength is not graded here.
Experiments:
[1] = target: α-syt7-fl-FLAG (full-length synaptotagmin 7, α splice variant, FLAG tag) (UniProt Q9R0N7); assay: co-IP; immunoprecipitation from rat hippocampal neurons expressing α-syt7-fl-FLAG, in the absence of cross-linkers
[2] = target: α-syt7cyto-mRuby (cytoplasmic domain of synaptotagmin 7, α splice variant, C-terminal mRuby) (UniProt Q9R0N7); assay: dynamic light scattering; size of protein droplets and aggregates of mRuby-tagged proteins; the instrument cannot distinguish particle sizes >1 µm; both purified
[3] = target: α-syt7cyto immobilised for HaloTag pull-down (UniProt Q9R0N7); assay: pull-down; HaloTag pull-down; syt7 immobilised; syt1-fl reconstituted into liposomes; Ca2+ against EGTA; both purified

By UniProt entry, the sequences of proteins in these tests, tags left out. Where a name states a change or a piece, a line headed by the entry shows the natural chain unless it says otherwise. Residues count along the entry.
UniProt Q9R0N7: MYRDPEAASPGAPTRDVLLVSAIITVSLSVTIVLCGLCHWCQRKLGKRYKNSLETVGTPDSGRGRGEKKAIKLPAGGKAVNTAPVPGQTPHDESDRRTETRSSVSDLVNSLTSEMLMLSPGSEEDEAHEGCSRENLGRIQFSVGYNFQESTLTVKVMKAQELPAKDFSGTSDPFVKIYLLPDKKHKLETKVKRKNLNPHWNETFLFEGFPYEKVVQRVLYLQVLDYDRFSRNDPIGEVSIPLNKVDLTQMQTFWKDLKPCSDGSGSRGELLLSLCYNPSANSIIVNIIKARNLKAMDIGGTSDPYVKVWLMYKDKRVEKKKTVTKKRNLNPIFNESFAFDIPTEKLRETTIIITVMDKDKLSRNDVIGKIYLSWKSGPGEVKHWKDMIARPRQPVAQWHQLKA
α-syt7cyto immobilised for HaloTag pull-down: residues 38-403 of Q9R0N7

“synaptotagmin 1 (syt1), endogenous in rat hippocampal neurons (from UniProt P21707 1-421)” was tested, and the binding [1] was “binds”.

For “α-syt7cyto-mRuby (cytoplasmic domain of synaptotagmin 7, α splice variant, C-terminal mRuby) (from UniProt Q9R0N7 38-403) (domain or fragment)”, the binding [2] was “binds”.

B1: syt1-fl reconstituted into liposomes (full-length synaptotagmin 1) (natural protein, UniProt P21707 1-421, looked up)
chain: MVSASHPEALAAPVTTVATLVPHNATEPASPGEGKEDAFSKLKQKFMNELHKIPLPPWALIAIAIVAVLLVVTCCFCVCKKCLFKKKNKKKGKEKGGKNAINMKDVKDLGKTMKDQALKDDDAETGLTDGEEKEEPKEEEKLGKLQYSLDYDFQNNQLLVGIIQAAELPALDMGGTSDPYVKVFLLPDKKKKFETKVHRKTLNPVFNEQFTFKVPYSELGGKTLVMAVYDFDRFSKHDIIGEFKVPMNTVDFGHVTEEWRDLQSAEKEEQEKLGDICFSLRYVPTAGKLTVVILEAKNLKKMDVGGLSDPYVKIHLMQNGKRLKKKKTTIKKNTLNPYYNESFSFEVPFEQIQKVQVVVTVLDYDKIGKNDAIGKVFVGYNSTGAELRHWSDMLANPRRPIAQWHTLQVEEEVDAMLAVKK
notes: synaptotagmin 1, full length (fl); Construct and host are in SI Appendix; source: reconstituted into liposomes
In the case of B1, the binding [3] is reported as “binds”.

Source: publication PMC13598225, “Alternative splicing of synaptotagmin 7 regulates oligomerization and short-term synaptic plasticity” (Proceedings of the National Academy of Sciences of the …, 2026)
